Patent EP0247971A2, “Novel pharmaceutical compositions comprising and use of cis-6-(4-acetanilido)-8,9-dimethoxy-2-methyl-1,2,3,4,4a,10b-hexahydrobenzo[c][1,6]naphthyridin” (SANDOZ AG, priority 1986, dated 1987)
For at least one compound, name, drawing or mass did not settle the structure.

Test system: human bronchus ring preparations
Experiment: Bronchospasmolytic activity in vitro, isolated human bronchus
Assay type: cell-based
Settings: human bronchus rings; of the order of; range over the contractile agencies

## COc1cc2c(cc1OC)[C@@H]1CN(C)CC[C@@H]1N=C2c1ccc(NC(C)=O)cc1 (racemic) [(±)-COMPOUND, cis-6-(4-acetanilido)-8,9-dimethoxy-2-methyl-1,2,3,4,4a,10b-hexahydrobenzo[c][1,6]naphthyridin]
  IC50 values for inhibition of spontaneous tone and for contraction by carbachol and histamine: 4.7 x 10-^6 to 8.7 x 10-^7
